Experimental data: article doi:10.1101/312165
No constants are given. Whether binding was seen depends on the method and setting. Binding seen in cells or lysates may run through a third protein. Here binding means that the protein was enriched with, or labelled near, the bait; the list need not be complete. No binding means not detected with the bait. Where a sequence is shown, tags or fusion partners need not be part of it. Blank lines part the entries; values can stand above or below the molecule they belong to.

Protein sequences, listed by entry. Tags and fused reporters are not part of them. Residues count along the entry.
UniProt Q00604, residues 25-133: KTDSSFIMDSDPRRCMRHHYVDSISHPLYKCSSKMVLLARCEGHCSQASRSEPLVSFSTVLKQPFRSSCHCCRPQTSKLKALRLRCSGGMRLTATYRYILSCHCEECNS

How the values were obtained:
[1] = biological target: T1, retinoschisin (human (endogenous in retina)) (UniProt O15537); test: affinity purification with mass spectrometry
T1 sequence: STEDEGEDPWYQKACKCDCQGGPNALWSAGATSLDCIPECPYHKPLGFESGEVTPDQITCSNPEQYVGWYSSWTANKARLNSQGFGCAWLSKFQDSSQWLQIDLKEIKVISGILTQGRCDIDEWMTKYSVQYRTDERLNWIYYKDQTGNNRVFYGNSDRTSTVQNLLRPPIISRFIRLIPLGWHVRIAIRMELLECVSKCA

[2] = biological target: norrin (human (endogenous in retina)) (UniProt Q00604); test: affinity purification with mass spectrometry

binding [1]: no binding
Molecule: norrin (from UniProt Q00604 25-133)

binding [2]: no binding
B1: retinoschisin (protein, UniProt O15537 24-224)
chain: T1 sequence
